Record: PubChem BioAssay AID1053208 (Peter MacCallum Cancer Centre, 2014)
Test: 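Find knock-downs that sensitise mouse osteosarcoma cells to doxorubicin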 (primary screen). Cells: mouse osteosarcoma cells, early-passage culture from an engineered mouse model of fibroblastic bone tumour. Reagents: siRNA pool against mouse genes, 40 nM. Time to read-out: about 120 h (48 h before drug, then 72 h with drug). Challenge: doxorubicin 100 nM for 72 h, roughly 30-40% inhibitory dose. Read-out: 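Luminescent ATP signal taken as viability with or without 100 nM doxorubicin for 72 h; mean of two wells set against non-targeting siRNA and turned into robust z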. Scale: viability z-score with doxorubicin: higher = more viable cells under doxorubicin; viability z-score without drug: higher = more viable cells with knock-down alone. Hit rule: 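Called active if knock-down leaves viability unchanged without drug (z within -2 to 2) but lowers it with doxorubicin (z at or under -2)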.
Shown is one part, drawn at random, of about 17,000 reagents tested. 788 of them (4.7%) were called active. 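Calls rest on z-score classes alone; an extra cut-off of viability at most 70% of control was not applied to them.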 A number with no mark means an inactive call. The numbers tell different reagents against one gene apart. Not all columns of the deposit are shown.

no.	target	reagent	combined z-score class	viability z-score with doxorubicin	viability z-score without drug
1	Rpl29 (ribosomal protein L29)	1	no change with or without drug	0.45	-0.51
2	Prpf19 (pre-mRNA processing factor 19)	1	low cell count with doxorubicin only (active)	-2.25	-1.18
3	Tada3 (transcriptional adaptor 3)	1	no change with or without drug	0.22	-1.52
4	Rhox11 (reproductive homeobox 11)	1	no change with or without drug	0.34	-0.17
5	Mrpl58 (mitochondrial ribosomal protein L58)	1	no change with or without drug	-0.45	-0.84
6	Rbbp6 (retinoblastoma binding protein 6, ubiquitin ligase)	1	no change with or without drug	-0.45	-0.51
7	Ppp1r3f (protein phosphatase 1, regulatory subunit 3F)	1	no change with or without drug	0.45	0
8	Ptpn3 (protein tyrosine phosphatase, non-receptor type 3)	1	no change with or without drug	1.01	0.17
9	Dscam (DS cell adhesion molecule)	1	no change with or without drug	-1.12	0.84
10	Mal2 (mal, T cell differentiation protein 2)	1	no change with or without drug	-1.57	-0.84
11	Arhgap28 (Rho GTPase activating protein 28)	1	no change with or without drug	0	0.51
12	Seh1l (SEH1-like (S. cerevisiae)	1	no change with or without drug	-1.46	-1.18
13	Pglyrp2 (peptidoglycan recognition protein 2)	1	no change with or without drug	-1.8	-1.85
14	Gm5094 (predicted gene 5094)	1	no change with or without drug	-0.34	0.17
15	Lrch4	1	no change with or without drug	-0.9	-0.51
16	Zfp36l1 (zinc finger protein 36, C3H type-like 1)	1	no change with or without drug	0.11	-0.51
17	Or2ah1 (olfactory receptor family 2 subfamily AH member 1)	1	no change with or without drug	-0.11	0
18	Atg4a (autophagy related 4A, cysteine peptidase)	1	no change with or without drug	0.67	1.85
19	Nub1 (negative regulator of ubiquitin-like proteins 1)	1	no change with or without drug	0.22	0.17
20	Dync1i1 (dynein cytoplasmic 1 intermediate chain 1)	1	no change with or without drug	-0.79	-0.17
21	Clec3b (C-type lectin domain family 3, member b)	1	no change with or without drug	-1.12	1.18
22	Edem1 (ER degradation enhancer, mannosidase alpha-like 1)	1	no change with or without drug	0.11	-0.17
23	Lman2 (lectin, mannose-binding 2)	1	no change with or without drug	-0.9	0.17
24	Vapb	1	no change with or without drug	-0.9	0
25	Gk (glycerol kinase)	1	no change with or without drug	0.45	0
26	Slc44a2	1	no change with or without drug	-0.22	-0.17
27	Phex (phosphate regulating endopeptidase homolog, X-linked)	1	no change with or without drug	0.45	-0.17
28	Aldoa (aldolase A, fructose-bisphosphate)	1	no change with or without drug	-0.22	0.84
29	Gm9758 (predicted gene 9758)	1	no change with or without drug	0.45	1.01
30	Cemip (cell migration inducing protein, hyaluronan binding)	1	no change with or without drug	-0.9	1.52
31	Csn1s2b (casein alpha s2-like B)	1	no change with or without drug	0.45	1.52
32	Slfn3 (schlafen 3)	1	low cell count with doxorubicin only (active)	-2.25	-1.85
33	Rnf20 (ring finger protein 20)	1	no change with or without drug	-0.67	-0.51
34	Ccdc198 (coiled-coil domain containing 198)	1	high cell count without drug only	1.12	3.04
35	AI593442 (expressed sequence AI593442)	1	no change with or without drug	0	0.17
36	Cd48 (CD48 antigen)	1	no change with or without drug	-1.24	-0.51
37	A930012M17	1	no change with or without drug	0.22	-1.18
38	Samd5 (sterile alpha motif domain containing 5)	1	low cell count with and without drug	-2.47	-2.53
39	Mkrn1 (makorin, ring finger protein, 1)	1	no change with or without drug	-0.22	0.17
40	Vmn1r62 (vomeronasal 1 receptor 62)	1	no change with or without drug	-0.9	-0.17
41	Vmn1r62 (vomeronasal 1 receptor 62)	2	no change with or without drug	-1.01	-0.17
42	Polr2a (polymerase (RNA) II (DNA directed) polypeptide A)	1	low cell count with doxorubicin only (active)	-3.26	-1.01
43	Uchl1 (ubiquitin carboxy-terminal hydrolase L1)	1	no change with or without drug	0.11	0.84
44	Traf7 (TNF receptor-associated factor 7)	1	low cell count with doxorubicin only (active)	-2.02	-0.51
45	Fbxl9 (F-box and leucine-rich repeat protein 9)	1	no change with or without drug	-0.45	0.17
46	Matk (megakaryocyte-associated tyrosine kinase)	1	no change with or without drug	-1.8	-1.52
47	Popdc2 (popeye domain containing 2)	1	no change with or without drug	0	0
48	Cd53 (CD53 antigen)	1	no change with or without drug	-0.67	-0.84
49	Rbbp7	1	no change with or without drug	1.01	0.34
50	Or13a20 (olfactory receptor family 13 subfamily A member 20)	1	low cell count without drug only	-0.45	-2.53
51	Sidt1 (SID1 transmembrane family, member 1)	1	high cell count with doxorubicin only	2.02	0.84
52	Ibtk (inhibitor of Bruton agammaglobulinemia tyrosine kinase)	1	no change with or without drug	-0.45	-1.52
53	Actr6 (ARP6 actin-related protein 6)	1	no change with or without drug	1.12	-0.51
54	Fbxw2 (F-box and WD-40 domain protein 2)	1	no change with or without drug	0.67	1.18
55	Dct (dopachrome tautomerase)	1	no change with or without drug	1.8	1.52
56	Serf2 (small EDRK-rich factor 2)	1	no change with or without drug	0.79	-0.17
57	Pcdh1 (protocadherin 1)	1	no change with or without drug	-0.34	-0.51
58	Hoxc12 (homeobox C12)	1	no change with or without drug	0.67	1.35
59	Grp (gastrin releasing peptide)	1	no change with or without drug	0.56	0.17
60	Larp4b (La ribonucleoprotein 4B)	1	no change with or without drug	-0.56	0.51
61	Angel1 (angel homolog 1)	1	no change with or without drug	1.35	1.52
62	Tmem218 (transmembrane protein 218)	1	no change with or without drug	1.69	1.69
63	Mia (MIA SH3 domain containing)	1	no change with or without drug	-0.45	1.35

Targets above whose gene name begins with O or o:
target	reagent	combined z-score class	viability z-score with doxorubicin	viability z-score without drug
Or2ah1 (olfactory receptor family 2 subfamily AH member 1)	1	no change with or without drug	-0.11	0
Or13a20 (olfactory receptor family 13 subfamily A member 20)	1	low cell count without drug only	-0.45	-2.53
